This test concerns the target FLAG-CDCA5 (cell division cycle associated 5) (human) (UniProt Q96FF9). Briefly: co-IP; lysate of ACHN cells overexpressing FLAG-CDCA5; immunoprecipitation with anti-FLAG antibody, western blot of the candidates. A general note: In western blotting, separated proteins are transferred to a membrane and probed.

By UniProt entry, the sequences of proteins in these tests, tags left out.
UniProt Q96FF9: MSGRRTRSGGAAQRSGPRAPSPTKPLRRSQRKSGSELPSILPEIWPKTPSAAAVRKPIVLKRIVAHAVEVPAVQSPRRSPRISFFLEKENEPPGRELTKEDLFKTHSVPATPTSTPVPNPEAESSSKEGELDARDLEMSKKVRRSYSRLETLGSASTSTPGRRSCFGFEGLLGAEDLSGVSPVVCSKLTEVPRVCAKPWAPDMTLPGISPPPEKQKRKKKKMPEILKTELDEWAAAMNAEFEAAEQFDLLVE
UniProt P68104: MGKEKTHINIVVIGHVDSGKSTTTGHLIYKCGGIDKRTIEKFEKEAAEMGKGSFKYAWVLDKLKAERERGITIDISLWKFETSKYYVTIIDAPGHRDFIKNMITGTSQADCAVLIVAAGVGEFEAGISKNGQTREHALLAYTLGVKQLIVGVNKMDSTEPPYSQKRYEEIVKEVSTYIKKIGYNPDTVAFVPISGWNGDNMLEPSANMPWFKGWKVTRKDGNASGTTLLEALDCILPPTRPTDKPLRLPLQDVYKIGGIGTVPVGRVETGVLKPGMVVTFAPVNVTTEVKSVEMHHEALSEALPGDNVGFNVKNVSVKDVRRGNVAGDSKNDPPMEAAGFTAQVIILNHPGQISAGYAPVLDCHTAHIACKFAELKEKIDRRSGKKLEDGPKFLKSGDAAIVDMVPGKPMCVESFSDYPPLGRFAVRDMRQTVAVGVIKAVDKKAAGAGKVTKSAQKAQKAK

No constants are given. Whether binding was seen depends on the method and setting. In cells and extracts the contact can be indirect. Some entries that bind do so weakly or less than the wild type.

“Eukaryotic Translation Elongation Factor 1 Alpha 1 (EEF1A1) (from UniProt P68104 1-462)”: the binding entry was “binds”.

For the origin of these results see paper PMC11044369.
